Assay: peptide synthesis

| Substance | step yield (coupling step) | step yield (late stage modification step) | difficulty met (late stage modification step) |
| --- | --- | --- | --- |
| Boc-L-valyl-(2R, 3S)-3-amino-2-hydroxy-pentanoyl-D-leucyl-L-valine benzyl ester | 82.8% |  |  |
| Z-L-valyl-L-valyl-(2R, 3S)-3-amino-2-hydroxy-pentanoyl-D-leucyl-L-valine benzyl ester | 79.7% |  |  |
| Z-L-valyl-L-valyl-(3S)-3-amino-2-oxo-pentanoyl-D-leucyl-L-valine benzyl ester |  | 58.6% |  |
| poststatin(L-valyl-L-valyl-(3S)-3-amino-2-oxo-pentanoyl-D-leucyl-L-valyl) |  | 21.7% | separated from the unreacted material and a partially epimerized substance |

Reference: patent US5359138A (Zaidan Hojin Biseibutsu Kagaku Kenkyu KaI, priority 1989, dated 1994)
